The source of these data is publication PMC5305204.

By UniProt entry, the sequences of proteins in these tests, tags left out.
UniProt Q9UKV5: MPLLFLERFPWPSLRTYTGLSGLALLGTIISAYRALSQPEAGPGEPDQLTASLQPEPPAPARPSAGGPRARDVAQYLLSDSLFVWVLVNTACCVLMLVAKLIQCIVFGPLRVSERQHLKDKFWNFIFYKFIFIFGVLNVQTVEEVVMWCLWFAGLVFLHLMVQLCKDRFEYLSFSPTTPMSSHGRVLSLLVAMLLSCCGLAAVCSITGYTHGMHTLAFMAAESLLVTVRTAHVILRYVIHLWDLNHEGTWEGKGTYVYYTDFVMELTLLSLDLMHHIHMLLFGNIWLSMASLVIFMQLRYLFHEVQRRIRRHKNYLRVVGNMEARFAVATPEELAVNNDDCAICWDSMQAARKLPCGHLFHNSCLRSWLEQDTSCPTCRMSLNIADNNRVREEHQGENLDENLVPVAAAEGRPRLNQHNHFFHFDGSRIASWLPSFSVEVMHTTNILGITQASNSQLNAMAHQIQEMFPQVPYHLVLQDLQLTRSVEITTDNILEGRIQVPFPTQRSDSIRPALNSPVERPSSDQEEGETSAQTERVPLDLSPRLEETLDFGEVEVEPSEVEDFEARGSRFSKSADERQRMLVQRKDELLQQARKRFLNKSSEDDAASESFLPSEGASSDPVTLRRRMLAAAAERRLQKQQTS

Test [1] has as its target T1, 11β-hydroxysteroid dehydrogenase-2 (human (endogenous in LAPC4)) (UniProt P80365).
T1 sequence: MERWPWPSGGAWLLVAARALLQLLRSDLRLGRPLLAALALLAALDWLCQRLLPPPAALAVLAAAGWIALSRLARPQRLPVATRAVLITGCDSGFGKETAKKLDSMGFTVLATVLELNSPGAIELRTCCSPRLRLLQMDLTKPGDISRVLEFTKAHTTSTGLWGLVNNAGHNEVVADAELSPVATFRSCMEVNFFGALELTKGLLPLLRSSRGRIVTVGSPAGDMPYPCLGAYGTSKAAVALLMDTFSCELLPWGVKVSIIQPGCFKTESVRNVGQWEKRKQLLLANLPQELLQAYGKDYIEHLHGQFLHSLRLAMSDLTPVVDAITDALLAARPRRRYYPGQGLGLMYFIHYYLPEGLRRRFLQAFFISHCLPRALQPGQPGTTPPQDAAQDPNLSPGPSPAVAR
Put plainly: co-IP; endogenous proteins in LAPC4 lysate (Pierce IP Lysis/Wash Buffer, protease inhibitors); 1-2 mg protein incubated with rabbit IgG, 11β-HSD2 antibody or AMFR antibody overnight at 4°C; immunoblot for 11β-HSD2 or AMFR. A general note: In western blotting, separated proteins are transferred to a membrane and probed.

The target in test [2] is autocrine mobility factor receptor (human (endogenous in LAPC4)) (UniProt Q9UKV5). The test is described as above.

These are yes or no findings as the source states them, for the method shown. In cells and extracts the contact can be indirect. Some entries that bind do so weakly or less than the wild type.

With “autocrine mobility factor receptor (from UniProt Q9UKV5 1-643) (enzyme)”, in test [1], the binding result is reported as “binds”.

B1: 11β-hydroxysteroid dehydrogenase-2 (enzyme, UniProt P80365 1-405)
chain: MERWPWPSGGAWLLVAARALLQLLRSDLRLGRPLLAALALLAALDWLCQRLLPPPAALAVLAAAGWIALSRLARPQRLPVATRAVLITGCDSGFGKETAKKLDSMGFTVLATVLELNSPGAIELRTCCSPRLRLLQMDLTKPGDISRVLEFTKAHTTSTGLWGLVNNAGHNEVVADAELSPVATFRSCMEVNFFGALELTKGLLPLLRSSRGRIVTVGSPAGDMPYPCLGAYGTSKAAVALLMDTFSCELLPWGVKVSIIQPGCFKTESVRNVGQWEKRKQLLLANLPQELLQAYGKDYIEHLHGQFLHSLRLAMSDLTPVVDAITDALLAARPRRRYYPGQGLGLMYFIHYYLPEGLRRRFLQAFFISHCLPRALQPGQPGTTPPQDAAQDPNLSPGPSPAVAR
As for B1, the binding result in test [2] is recorded as “binds”.
